Values from PubChem BioAssay AID1259314 (Drosophila RNAi Screening Center, 2017)
In all, the deposit lists about 3,100 reagents; shown is an unselected part. 289 of them (9.3%) count as active. 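Active includes both higher and lower ATP than plate average; check the z-score sign for direction.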 A plus sign joins genes that one reagent is predicted to hit. Not given: the amount of reagent.

Screen: 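Transmembrane protein genes affecting ATP after manganese overload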 (primary screen)
Cells: Drosophila S2R+ cells
Reagents: long dsRNA against Drosophila genes
Time to read-out: 5 days (4 days knock-down, then 1 day metal exposure)
Conditions: manganese chloride added to 15 mM for 24 hours
Detection: 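Luciferase ATP signal used as a proxy for viable cell number, reported as one averaged z-score per dsRNA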
Direction: mean ATP z-score: higher = more ATP than the plate average, more viable cells under manganese
Active means: 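Called active when the mean ATP z-score is above 1.5 or below -1.5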
Calls: active = strong ATP change, up or down; inactive = no strong ATP change

| gene knocked down | amplicon | mean ATP z-score | activity call |
| --- | --- | --- | --- |
| CG34433 | DRSC15077 | 0.122 | inactive |
| PMP34 (Peroxisomal Membrane Protein 34) | DRSC21939 | -0.43 | inactive |
| PMP34 (Peroxisomal Membrane Protein 34) | DRSC39444 | 0.741 | inactive |
| Ranbp16 | DRSC20160 | 0.176 | inactive |
| CG11601 | DRSC00318 | -0.529 | inactive |
| CG11601 | DRSC39635 | 1.2 | inactive |
| stol (stolid) | DRSC01956 | 0.219 | inactive |
| stol (stolid) | DRSC39841 | -1.26 | inactive |
| CG4465 | DRSC15584 | -0.147 | inactive |
| CG4465 | DRSC39564 | -0.31 | inactive |
| CG13077 | DRSC02181 | 1.52 | active |
| CG13077 | DRSC39515 | -0.756 | inactive |
| Tl (Toll) | DRSC16885 | 0.181 | inactive |
| Tl (Toll) | DRSC39497 | 0.438 | inactive |
| Ir7d (Ionotropic receptor 7d) | DRSC18010 | 0.43 | inactive |
| SLC22A (SLC22A family member) | DRSC11826 | 0.147 | inactive |
| SLC22A (SLC22A family member) | DRSC11827 | -0.641 | inactive |
| ItgaPS5 (Integrin alphaPS5 subunit) | DRSC04501 | -0.486 | inactive |
| ItgaPS5 (Integrin alphaPS5 subunit) | DRSC28842 | -0.324 | inactive |
| CG6659 | DRSC20003 | -0.335 | inactive |
| CG6659 | DRSC39777 | -1.62 | active |
| Osi4 (Osiris 4) | DRSC12134 | -0.543 | inactive |
| Osi4 (Osiris 4) | DRSC39716 | 0.0128 | inactive |
| teq (Tequila) | DRSC11301 | -1.19 | inactive |
| teq (Tequila) | DRSC11302 | -0.671 | inactive |
| TM4SF (Transmembrane 4 superfamily) | DRSC04661 | 1.17 | inactive |
| TM4SF (Transmembrane 4 superfamily) | DRSC39574 | -0.31 | inactive |
| colt (congested-like trachea) | DRSC00808 | 0.236 | inactive |
| colt (congested-like trachea) | DRSC29025 | 0.134 | inactive |
| CG42514 | DRSC10428 | 0.563 | inactive |
| CG11425 | DRSC11657 | -1.09 | inactive |
| CG11425 | DRSC28400 | -1.49 | inactive |
| SP1173 | DRSC11277 | -0.165 | inactive |
| Ir75c (Ionotropic receptor 75c) | DRSC10190 | -0.382 | inactive |
| Pex12 (Peroxin 12) | DRSC00622 | -1.51 | active |
| Pex12 (Peroxin 12) | DRSC27149 | 2.85 | active |
| nAChRalpha5 (nicotinic Acetylcholine Receptor alpha5) | DRSC01946 | 0.941 | inactive |
| Eato (Engulfment ABC Transporter in the ovary) | DRSC01891 | -0.489 | inactive |
| Eato (Engulfment ABC Transporter in the ovary) | DRSC03061 | 1.05 | inactive |
| CG8405 | DRSC07166 | 0.832 | inactive |
| CG8405 | DRSC39857 | -1.08 | inactive |
| Tsp2A (Tetraspanin 2A) | DRSC18584 | -0.485 | inactive |
| Tsp2A (Tetraspanin 2A) | DRSC39445 | -0.358 | inactive |
| CG8860 | DRSC07291 | -0.213 | inactive |
| CG8860 | DRSC25286 | 2.66 | active |
| CG5342 | DRSC15776 | 1.64 | active |
| ZnT77C (Zinc transporter 77C) | DRSC11766 | -1.11 | inactive |
| ZnT77C (Zinc transporter 77C) | DRSC11767 | 0.35 | inactive |
| SCAP (SREBP cleavage activating protein) | DRSC04869 | -1.01 | inactive |
| SCAP (SREBP cleavage activating protein) | DRSC04907 | -0.227 | inactive |
| CG31760 | DRSC02590 | -1.75 | active |
| CG31760 | DRSC27108 | 2.07 | active |
| Tsp29Fb (Tetraspanin 29Fb) | DRSC03233 | -1.49 | inactive |
| Tsp29Fb (Tetraspanin 29Fb) | DRSC26296 | -0.348 | inactive |
| hoe1 (hoepel1) | DRSC00265 | -0.0486 | inactive |
| hoe1 (hoepel1) | DRSC00353 | 0.0262 | inactive |
| CG5592 | DRSC10524 | -0.516 | inactive |
| CG5592 | DRSC39427 | -0.0496 | inactive |
| CG30160 + Tsp42Eb | DRSC04961 | 0.945 | inactive |
| CG30160 + Tsp42Eb | DRSC06791 | 1.45 | inactive |
| CG11155 | DRSC17184 | -0.686 | inactive |
| CG11155 | DRSC17205 | -0.106 | inactive |
| CG11155 | DRSC29324 | 0.904 | inactive |
| Kap-alpha3 (karyopherin alpha3) | DRSC16976 | -0.398 | inactive |
| rk (rickets) | DRSC03602 | -0.234 | inactive |
| Ykt6 (YKT6 v-SNARE) | DRSC26017 | -1.95 | active |
| Alk (Anaplastic lymphoma kinase) | DRSC23342 | -0.418 | inactive |
| Alk (Anaplastic lymphoma kinase) | DRSC36972 | -0.519 | inactive |
| Alk (Anaplastic lymphoma kinase) | DRSC36973 | 0.637 | inactive |
| Or65a (Odorant receptor 65a) | DRSC08808 | -0.404 | inactive |
| Or65a (Odorant receptor 65a) | DRSC39609 | 0.181 | inactive |
| Cad96Cb (Cadherin 96Cb) | DRSC14243 | 0.668 | inactive |
| Cad96Cb (Cadherin 96Cb) | DRSC14665 | -0.247 | inactive |
| Cad96Cb (Cadherin 96Cb) | DRSC28720 | 0.498 | inactive |
| egh (egghead) | DRSC18771 | 0.244 | inactive |
| egh (egghead) | DRSC29898 | -0.717 | inactive |
| CG14691 | DRSC14914 | -0.42 | inactive |
| CG14691 | DRSC27957 | 0.787 | inactive |
| Tim17b2 (Translocase inner membrane 17) | DRSC28544 | 0.0299 | inactive |
| Tsp96F (Tetraspanin 96F) | DRSC14147 | 2.54 | active |
| Tsp96F (Tetraspanin 96F) | DRSC39893 | 0.018 | inactive |
| CG14195 | DRSC19550 | -0.0259 | inactive |
| CG14195 | DRSC39887 | -0.655 | inactive |
| nAChRalpha6 (nicotinic Acetylcholine Receptor alpha6) | DRSC01096 | -1.34 | inactive |
| nAChRalpha6 (nicotinic Acetylcholine Receptor alpha6) | DRSC02738 | -0.498 | inactive |
| Tsp42A (Tetraspanin 42A) | DRSC04862 | -0.837 | inactive |
| Tsp42A (Tetraspanin 42A) | DRSC39899 | -1.07 | inactive |
| CG15279 | DRSC01935 | 0.188 | inactive |
| CG15279 | DRSC27347 | -0.697 | inactive |
| Sur-8 | DRSC15794 | -0.392 | inactive |
| Cln7 | DRSC11005 | -0.0802 | inactive |
| Tango5 (Transport and Golgi organization 5) | DRSC18023 | 0.571 | inactive |
| Tango5 (Transport and Golgi organization 5) | DRSC25500 | 1.65 | active |
| MFS3 (Major Facilitator Superfamily Transporter 3) | DRSC00664 | -0.817 | inactive |
| MFS3 (Major Facilitator Superfamily Transporter 3) | DRSC28601 | -0.313 | inactive |
| CG42638 + Trpml | DRSC11032 | -0.486 | inactive |
| CG42638 + Trpml | DRSC39630 | -0.21 | inactive |
| Vha16-1 (Vacuolar H[+] ATPase 16kD subunit 1) | DRSC05020 | -0.558 | inactive |
| Or59a (Odorant receptor 59a) | DRSC04631 | 0.0471 | inactive |
| Or59a (Odorant receptor 59a) | DRSC39825 | 0.28 | inactive |
| Osi19 (Osiris 19) | DRSC12569 | 0.307 | inactive |
| Nup54 (Nucleoporin 54kD) | DRSC07282 | -0.86 | inactive |
| nAChRalpha3 (nicotinic Acetylcholine Receptor alpha3) | DRSC18800 | 0.74 | inactive |
| nAChRalpha3 (nicotinic Acetylcholine Receptor alpha3) | DRSC25751 | 2.38 | active |
| CG6938 | DRSC10752 | -0.72 | inactive |
| CG6938 | DRSC28621 | -0.704 | inactive |
| Amt (Ammonium transporter) | DRSC16055 | 0.049 | inactive |
| Amt (Ammonium transporter) | DRSC27970 | 0.625 | inactive |
| Ir7c (Ionotropic receptor 7c) | DRSC18007 | -0.509 | inactive |
| Ir7c (Ionotropic receptor 7c) | DRSC39710 | 0.344 | inactive |
| sog (short gastrulation) | DRSC20379 | -0.287 | inactive |
| Itpr (Inositol 1,4,5,-trisphosphate receptor) | DRSC12354 | -0.771 | inactive |
| Itpr (Inositol 1,4,5,-trisphosphate receptor) | DRSC28770 | -0.584 | inactive |
| CG3690 | DRSC18170 | 0.836 | inactive |
| CG3690 | DRSC18641 | 0.444 | inactive |
| MFS10 (Major Facilitator Superfamily Transporter 10) | DRSC19888 | 0.964 | inactive |
| MFS10 (Major Facilitator Superfamily Transporter 10) | DRSC26960 | 1.07 | inactive |
| Gr94a (Gustatory receptor 94a) | DRSC13597 | -0.622 | inactive |
| Gr94a (Gustatory receptor 94a) | DRSC39563 | 0.25 | inactive |
| CG4025 | DRSC18523 | 1.16 | inactive |
| CG2698 | DRSC15447 | -0.439 | inactive |
| CG2698 | DRSC39597 | 0.523 | inactive |
| Atet (ABC transporter expressed in trachea) | DRSC00263 | -0.358 | inactive |
| Atet (ABC transporter expressed in trachea) | DRSC39890 | 0.308 | inactive |
| GC1 | DRSC15322 | -0.175 | inactive |
| GC1 | DRSC25627 | 0.503 | inactive |
| mthl6 (methuselah-like 6) | DRSC10234 | -0.619 | inactive |
| mthl6 (methuselah-like 6) | DRSC39848 | -0.577 | inactive |
| CG2519 | DRSC12312 | 0.411 | inactive |
| FucT6 (alpha1,6-fucosyltransferase) | DRSC19848 | 0.53 | inactive |
| FucT6 (alpha1,6-fucosyltransferase) | DRSC26057 | -0.403 | inactive |
| CG33303 | DRSC02848 | -0.138 | inactive |
| CG33303 | DRSC39812 | 0.384 | inactive |
| Inx7 + cm | DRSC18753 | 0.00261 | inactive |
| dpy (dumpy) | DRSC00233 | -0.33 | inactive |
| dpy (dumpy) | DRSC00234 | -0.0993 | inactive |
| dpy (dumpy) | DRSC00472 | -0.744 | inactive |
| crb (crumbs) | DRSC16927 | -0.589 | inactive |
| crb (crumbs) | DRSC39156 | 0.305 | inactive |
| Lgr1 (Leucine-rich repeat-containing G protein-coupled receptor 1) | DRSC16675 | 0.283 | inactive |
| Lgr1 (Leucine-rich repeat-containing G protein-coupled receptor 1) | DRSC39668 | -0.404 | inactive |
